Results as given in paper PMC10619474.

Chains of the proteins cited; added tags and fusions are not shown. Lines headed by an entry give the natural chain unless they say otherwise; changes in a name come on top.
UniProt Q00196: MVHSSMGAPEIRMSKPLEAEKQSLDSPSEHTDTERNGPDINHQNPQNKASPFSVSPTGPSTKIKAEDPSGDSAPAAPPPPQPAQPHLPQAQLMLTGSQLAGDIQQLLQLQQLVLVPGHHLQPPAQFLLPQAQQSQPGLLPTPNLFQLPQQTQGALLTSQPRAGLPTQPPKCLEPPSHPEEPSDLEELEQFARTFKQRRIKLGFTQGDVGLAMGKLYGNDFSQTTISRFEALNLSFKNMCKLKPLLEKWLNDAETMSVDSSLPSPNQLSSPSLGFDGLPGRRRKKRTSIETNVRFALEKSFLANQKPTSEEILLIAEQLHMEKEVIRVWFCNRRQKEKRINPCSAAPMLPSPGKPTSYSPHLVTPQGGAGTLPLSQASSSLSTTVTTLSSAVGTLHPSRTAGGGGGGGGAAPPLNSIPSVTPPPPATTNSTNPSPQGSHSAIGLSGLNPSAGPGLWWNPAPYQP

Assays:
[1] = biological target: POU2F2 (endogenous, Hep1-6 nuclear extract) (Mus musculus (Hep1-6)) (UniProt Q00196); assay: EMSA; conditions: mutant probe as labeled probe; LightShift Chemiluminescent EMSA Kit; antibody preincubated with nuclear extract on ice 10 min before probe; pH and binding temperature not given; protein in an extract; label: 3' biotin as probe
[2] = biological target: POU2F2 (endogenous, Hep1-6 nuclear extract) (Mus musculus (Hep1-6)) (UniProt Q00196); assay: competition with a labelled probe; conditions: mutant as competitor against N3; LightShift Chemiluminescent EMSA Kit; antibody preincubated with nuclear extract on ice 10 min before probe; pH and binding temperature not given; protein in an extract; label: 3' biotin as probe
[3] = biological target: POU2F2 (endogenous, Hep1-6 nuclear extract) (Mus musculus (Hep1-6)) (UniProt Q00196); assay: EMSA, supershift; conditions: anti-POU2F2 supershift, abolished by unlabeled probe; LightShift Chemiluminescent EMSA Kit; antibody preincubated with nuclear extract on ice 10 min before probe; pH and binding temperature not given; protein in an extract; label: 3' biotin
GST tag = assay: EMSA; conditions: LightShift Chemiluminescent EMSA Kit; antibody preincubated with nuclear extract on ice 10 min before probe; pH and binding temperature not given; recombinant protein; protein details: GST; label: 3' biotin
GST-p53 (Homo sapiens) = GST-p53 (Homo sapiens) (UniProt P04637); assay: EMSA, supershift; conditions: anti-p53 supershift, binding lost with increasing HIS-POU2F2 (Fig S5H); LightShift Chemiluminescent EMSA Kit; antibody preincubated with nuclear extract on ice 10 min before probe; pH and binding temperature not given; recombinant protein; residues 1-393; protein details: GST; label: 3' biotin
[4] = biological target: T1, HIS-POU2F2 (Homo sapiens) (UniProt P09086); assay: EMSA, supershift; conditions: anti-POU2F2 supershift, increasing HIS-POU2F2 displaces fixed GST-p53 (Fig S5H); LightShift Chemiluminescent EMSA Kit; antibody preincubated with nuclear extract on ice 10 min before probe; pH and binding temperature not given; recombinant protein; protein details: N-terminal His; label: 3' biotin
T1 sequence (looked up, limits assumed): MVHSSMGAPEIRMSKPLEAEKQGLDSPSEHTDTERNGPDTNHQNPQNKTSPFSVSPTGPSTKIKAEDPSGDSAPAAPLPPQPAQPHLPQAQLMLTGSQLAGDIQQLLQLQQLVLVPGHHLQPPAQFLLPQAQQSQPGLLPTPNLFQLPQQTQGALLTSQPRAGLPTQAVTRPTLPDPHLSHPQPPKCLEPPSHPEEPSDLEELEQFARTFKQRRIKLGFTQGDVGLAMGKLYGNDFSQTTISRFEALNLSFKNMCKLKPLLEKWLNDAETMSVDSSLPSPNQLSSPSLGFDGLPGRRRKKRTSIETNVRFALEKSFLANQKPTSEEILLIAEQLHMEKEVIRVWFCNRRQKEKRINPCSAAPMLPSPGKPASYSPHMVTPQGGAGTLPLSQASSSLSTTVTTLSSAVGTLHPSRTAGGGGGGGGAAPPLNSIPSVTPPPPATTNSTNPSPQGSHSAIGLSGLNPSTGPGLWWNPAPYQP

[5] = biological target: POU2F2 (endogenous, Huh7 nuclear extract) (Homo sapiens (Huh7)) (UniProt P09086); assay: EMSA; conditions: mutant probe as labeled probe; LightShift Chemiluminescent EMSA Kit; antibody preincubated with nuclear extract on ice 10 min before probe; pH and binding temperature not given; protein in an extract; label: 3' biotin as probe
[6] = biological target: POU2F2 (endogenous, Huh7 nuclear extract) (Homo sapiens (Huh7)) (UniProt P09086); assay: competition with a labelled probe; conditions: mutant as competitor against N1; LightShift Chemiluminescent EMSA Kit; antibody preincubated with nuclear extract on ice 10 min before probe; pH and binding temperature not given; protein in an extract; label: 3' biotin as probe
[7] = biological target: POU2F2 (endogenous, Huh7 nuclear extract) (Homo sapiens (Huh7)) (UniProt P09086); assay: EMSA, supershift; conditions: anti-POU2F2 supershift, abolished by unlabeled probe; LightShift Chemiluminescent EMSA Kit; antibody preincubated with nuclear extract on ice 10 min before probe; pH and binding temperature not given; protein in an extract; label: 3' biotin

Question: Does “GGGTAATTGTACAGCTTC (double strand) [mouse Nanog mutant probe]” bind [1]?
Answer: no binding

Question: Does “GGGTAATTGTACAGCTTC (double strand) [mouse Nanog mutant probe]” bind [2]?
Answer: no binding

Question: Does “GGGTCACCTTACAGCTTC (double strand) [mouse Nanog -198 to -181 probe]” bind [3]?
Answer: binds

Question: Does “GTTTTCTAGTTCCCCACCTAGTCTGGGTTACTC (double strand) [human NANOG site-p53/CACCT probe]” bind (GST tag)?
Answer: no binding

Question: Does “GTTTTCTAGTTCCCCACCTAGTCTGGGTTACTC (double strand) [human NANOG site-p53/CACCT probe]” bind (GST-p53 (Homo sapiens))?
Answer: binds

Question: Does “GTTTTCTAGTTCCCCACCTAGTCTGGGTTACTC (double strand) [human NANOG site-p53/CACCT probe]” bind [4]?
Answer: binds

Question: Does “TCCCAATTGAGTCTGGGTTACTC (double strand) [human NANOG mutant probe]” bind [5]?
Answer: no binding

Question: Does “TCCCAATTGAGTCTGGGTTACTC (double strand) [human NANOG mutant probe]” bind [6]?
Answer: no binding

Question: Does “TCCCCACCTAGTCTGGGTTACTC (double strand) [human NANOG -150 to -128 probe]” bind [7]?
Answer: binds

The exact form of at least one protein or probe is not confirmed. For part of these data: No signal at the amounts used counts as a negative. For part of these data: At least one result comes from cells or an extract, where the contact may be indirect. For part of these data: Protein sequences can lack the tags named with them.
